The source of these data is US20240361317A1, “PROBES BASED ON VOLATILE ORGANIC COMPOUNDS AND USES THEREOF FOR THE DIAGNOSIS AND PROGNOSIS OF PATHOLOGICAL CONDITIONS” (Centre National de la Recherche Scientifique, priority 2021, published 2024).

For series [1], the system named is KB tumors (tumor xenograft, tumor cells of the nasopharynx KB). The series can be described thus: In vivo test of cocktail of 4 probes: ethanol isotopes exhaled after i.v. injection. On the set-up: species or system mouse. The settings on record: doses 0.5 to 100 tested. How it is done: In the context of this study, the quantity of 4 expired isotopes by mouse models carrying a tumor xenograft (tumor cells of the nasopharynx KB; n=6) was compared to that exhaled by healthy animals (n=6) after i.v. injection of the cocktail.
The concentration of the 4 probes to be injected was determined beforehand according to a precise experimental plan having the objective of determining the amount of each probe inducing a minimum ethanol response in healthy animals (signal reaching a low or even zero basal level). In this context, the healthy animals received increasing doses of the 4 probes ([…] at 100 μg·kg^−1). The animals were then placed in a hermetic cage for 1 h. The amount of each ethanol isotope present in the breath of the animals was then measured for 30 min via an SPME sample, then a GC-TQMS analysis.
Once the i.v. doses are set, the cocktail was injected into healthy mice and diseased mice after 12 and then 15 days of implantation of the xenograft. The amount of the ethanol isotopes exhaled by the animals was measured 1 h after injection of the cocktail (FIG. 10). A negative control on two mice (healthy and diseased) was carried out. This control consisted of measuring the quantity of 4 isotopes of ethanol in the air surrounding the mice which had not received the cocktail. Ethanol-D5, ethanol-D4 and ethanol-^13CD5 were not detected. On the other hand, the specific transitions of ethanol-D2 gave an important signal, which implies the presence of an interfering compound in the environment of the mice. The amount of ethanol-D2 exhaled by the healthy mice was therefore subtracted from this background noise.

Series [2] is described as follows: SPME-GC-TQMS detection ranges of ethanol isotopes in solution. The settings on record: SPME 30 min at 30° C.; isotopes in mixture in solution.

`[2H]C([2H])(C)O[C@@H]1O[C@H](CO)[C@H](O)[C@H](O)[C@H]1O` [D2-ethyl-β-D-galactopyranoside]: in series [1], the “optimal injection dose (minimum ethanol response in healthy animals)” value (from here on “optimal injection dose”) came out at 0.001 mg/kg.

In the case of `[2H]C(O[C@@H]1O[C@@H](C)[C@@H](O)[C@@H](O)[C@@H]1O)C([2H])([2H])[2H]` (stereo partly drawn) [D4-ethyl-1-α-L-fucopyranoside], in series [1], the “optimal injection dose” value was 0.1 mg/kg.

With `[2H]C([2H])([2H])C([2H])([2H])O[C@@H]1O[C@H](C(=O)O)[C@@H](O)[C@H](O)[C@H]1O` [D5-ethyl-β-D-glucuronide], in series [1], the “optimal injection dose” value stood at 0.01 mg/kg.

Consider `[2H]C([2H])([2H])C([2H])([2H])O` [ethanol-D5], for which the “limit of detection of ethanol isotope” value in series [2] is reported as 1.10^9 M.

In the case of `[2H][13C]([2H])([2H])[13C]([2H])([2H])O` [ethanol-^13C-D5], the “limit of detection of ethanol isotope” value in series [2] is given as 5.10^9 M.

With “^13C-D5-ethyl-N-acetylglucosamide [^13C-D5-ethyl-N-acetylglucosamine]”, the “optimal injection dose” value in series [1] turned out to be 0.01 mg/kg.
